The values below are quoted from earlier work in patent US20140037729A1, “COMBINATION OF AN OPIOID AGONIST AND AN OPIOID ANTAGONIST IN THE TREATMENT OF PARKINSON'S DISEASE” (Euro-Celtique, S.A., priority 2010, published 2014).

In the data set the test system is parkinsonian patients. The following applies: at very low doses; Berg et al. 1999.

For the compound `CN1CC[C@]23c4c5ccc(O)c4O[C@H]2[C@@H](O)C=C[C@H]3[C@H]1C5` [morphine], the dyskinetic movements entry is recorded as “decrease in dyskinetic movements”.
